# Assay results from patent US20250129027A1 (APOGEE PHARMACEUTICALS, INC., priority 2023, published 2025).
# Chains of the proteins cited; added tags and fusions are not shown.
# UniProt Q99685, whole entry: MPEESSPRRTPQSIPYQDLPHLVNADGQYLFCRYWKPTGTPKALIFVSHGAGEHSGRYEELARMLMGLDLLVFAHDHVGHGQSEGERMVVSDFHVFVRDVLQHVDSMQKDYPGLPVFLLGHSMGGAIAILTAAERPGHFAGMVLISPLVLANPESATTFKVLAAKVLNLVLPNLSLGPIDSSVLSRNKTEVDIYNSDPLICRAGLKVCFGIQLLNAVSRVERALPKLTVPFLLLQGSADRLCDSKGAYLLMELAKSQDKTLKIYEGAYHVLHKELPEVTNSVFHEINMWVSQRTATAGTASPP
# UniProt O00519, whole entry: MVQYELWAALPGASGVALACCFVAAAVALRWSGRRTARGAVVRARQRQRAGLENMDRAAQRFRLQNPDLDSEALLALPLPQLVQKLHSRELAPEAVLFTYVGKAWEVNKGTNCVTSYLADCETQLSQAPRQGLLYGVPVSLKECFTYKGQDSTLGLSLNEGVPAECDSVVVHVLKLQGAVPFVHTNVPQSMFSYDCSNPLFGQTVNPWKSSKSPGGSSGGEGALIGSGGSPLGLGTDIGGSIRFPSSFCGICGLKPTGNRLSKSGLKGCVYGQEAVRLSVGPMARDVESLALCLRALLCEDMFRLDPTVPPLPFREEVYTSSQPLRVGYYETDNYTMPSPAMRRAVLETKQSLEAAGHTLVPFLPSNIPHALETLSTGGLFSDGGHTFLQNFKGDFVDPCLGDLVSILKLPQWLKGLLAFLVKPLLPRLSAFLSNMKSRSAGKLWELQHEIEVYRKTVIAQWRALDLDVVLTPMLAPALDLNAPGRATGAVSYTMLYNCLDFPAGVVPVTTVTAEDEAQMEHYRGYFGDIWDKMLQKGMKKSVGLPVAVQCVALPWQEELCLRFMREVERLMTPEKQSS
# Like-named read-outs stand apart in the source and are kept apart here. The structures given here were assigned with low confidence; some may be wrong.
# Key:
# human recombinant MAGL = human recombinant MAGL (Homo sapiens (Human), UniProt Q99685); assay: In vitro inhibition of MAGL activity (inhibitor screening kit, 4-nitrophenylacetate); conditions: read-out: Inhibition on MAGL activity (IC50)
# human recombinant FAAH = human recombinant FAAH (Homo sapiens (Human), UniProt O00519); assay: In vitro inhibition of FAAH activity (fluorescent inhibitor screening kit, AMC arachidonoyl amide); assay type: biochemical
structure (smiles),measurement,setting,value
COc1ccc(OC(=O)NC2CCCCCCC2)cc1-c1cncc(-c2nnco2)c1,IC50,human recombinant MAGL,> 10000 nM
same,IC50,"human recombinant FAAH; FAAH, values as listed in Table 5",110 nM
same,IC50,"human recombinant FAAH; read-out: Inhibition on FAAH activity (IC50), human recombinant FAAH",110 nM
